# Test results from PubChem BioAssay AID624297 (National Center for Advancing Translational Sciences (NCATS), 2012).
# Screen size: about 340,000 compounds; about 6,200 (1.8%) were called active. The inconclusive results got no clear call from the source; some entries with a clear call stand among them for comparison. Calls follow the shape of the dose curve; as a rule, active = well fitted activation curve with a large enough effect; inconclusive = small, poorly fitted or top-dose-only effect; inactive = no such curve, though single readings can be large or run the other way. Potencies of inconclusive entries are doubtful fits and often do not repeat.
# Assay: A quantitative high throughput screen for small molecules that induce DNA re-replication in SW480 colon adenocarcinoma cells. Also: nearly all actives have a fitted effect of over 55% in size. As to re-replication activation: % of control where 0% means no effect.
# Conditions: Hoechst DNA content imaging, 48 h; re-replication activation: at 46.1 µM (top of the series) unless noted
# Method in brief: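 Hoechst fluorescence of nuclei (405 nm excitation, 500-530 nm emission) measured by plate-scanning imager after 48 hr compound exposure at 37 C; re-replication scored as increased number of nuclei with elevated intensity.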
# Potency is read from the fitted curve at half-maximal effect.
SMILES,Potency,re-replication activation
Cc1ccccc1C(CC(=O)c1cccs1)C(C#N)C#N (stereo not drawn),"inconclusive: 0.366 µM [activator, full curve, poor fit]",–
COc1cc2c(cc1OC)CN(C(=O)c1ccc(OC)c(S(=O)(=O)N3CCCC3)c1)CC2,"inconclusive: 29.1 µM [activator, single point]",–
O=C(CN1C(=O)CSc2cc(S(=O)(=O)N3CCCCCC3)ccc21)NCCc1ccccc1,"inconclusive: 18.4 µM [activator, partial curve, poor fit]",–
Cc1ccc(SCCC(=O)N/N=C/c2ccccc2O)cc1,"inconclusive: 5.8 µM [activator, full curve, poor fit]",–
CC(C)(C)c1ccc(C(=O)N2CCC(=O)N(C(COCc3ccccc3)Cc3ccccc3)CC2)cc1 (stereo not drawn),"inconclusive: 29.1 µM [activator, single point]",–
CCOC(=O)C1CCCN(C(=S)NC(=O)c2cc(Br)ccc2Cl)C1 (stereo not drawn),active: 16.4 µM,–
CCCCN(CC)S(=O)(=O)c1ccc(C(=O)Nc2nnc(-c3cccs3)o2)cc1,"inconclusive: 13 µM [activator, single point]",–
CN(C)Cc1cc(C(C)(C)c2ccccc2)ccc1O,"inconclusive: 29.1 µM [activator, single point]",–
COc1ccc(C(=O)Nc2cc(C)on2)c(OC)c1,"inconclusive: 0.116 µM [activator, full curve, poor fit]",–
COc1ccc(C(=O)C(OC(=O)c2ccccc2Cl)c2ccccc2)cc1 (stereo not drawn),inactive,–
COc1ccc(-c2cc(=O)oc3cc(OCC(=O)NCC4CCC(C(=O)O)CC4)ccc23)cc1 (stereo not drawn),"inconclusive: 29.1 µM [activator, single point]",–
COc1ccc(OC)c(CN2CCN(C(=O)c3ccc(C)c(S(=O)(=O)Nc4ccccc4OC)c3)CC2)c1,"inconclusive: 23.1 µM [activator, partial curve, poor fit]",–
CN(C)CCCN(C(=O)c1ccc(S(=O)(=O)N2CCc3ccccc32)cc1)c1nc2ccc(Cl)cc2s1,"inconclusive: 23.1 µM [activator, single point]",–
OCCNCCOc1ccccc1F,inactive,–
COc1ccc(C(=O)Nc2ccccc2N2CCOCC2)cc1Br,–,inactive: -2.44% [at 9.22 µM]
CC(C)C(NC(=O)CNC(=O)OC(C)(C)C)C(=O)NCc1ccc(Cl)cc1 (stereo not drawn),"inconclusive: 14.6 µM [activator, single point]",–
O=S(=O)(c1cccs1)N1CN(C2CCCCC2)c2nc3ccccc3nc21,"inconclusive: 29.1 µM [activator, single point]",–
O=C(CC(Nc1ccccc1)c1ccc(F)cc1)c1ccccc1 (stereo not drawn),"inconclusive: 23.1 µM [activator, single point]",–
OCCC1CN(Cc2cc3c(cc2Cl)OCO3)CCN1C1CCCC1 (stereo not drawn),"inconclusive: 6.51 µM [activator, partial curve, poor fit]",–
CCCNC(=O)c1cccc(Cn2cc(Br)c([N+](=O)[O-])n2)c1,"inconclusive: 0.461 µM [activator, full curve, poor fit]",–
COc1ccc(C2CC(c3ccccc3C(F)(F)F)=NN2c2ccc(S(N)(=O)=O)cc2)cc1 (stereo not drawn),active: 0.731 µM,–
N#Cc1ccccc1NC(=O)COC(=O)CCc1ccccc1,inactive,–
CC(C)(C)c1cc(NCc2ccccn2)n2ncc(-c3ccccc3)c2n1,inactive,–

SMILES,Potency,re-replication activation
O=C1C=C(c2ccc3ccccc3c2)C[C@@H](c2ccc(F)cc2)C1,"inconclusive: 5.17 µM [activator, full curve, poor fit]",–
O=C1/C(=C\c2ccco2)SC(=S)N1c1ccc(O)cc1,active: 20.6 µM,–
Cc1nc(C)c(-c2ccc(SCC(=O)Nc3cccc(F)c3)nn2)s1,inactive,–
Cc1nc2ccc(S(=O)(=O)Nc3ccccc3C)cc2s1,"inconclusive: 20.6 µM [activator, single point]",–
Cc1noc(C)c1CSCC(=O)N(C)CC(=O)Nc1ccc(F)c(F)c1F,inactive,–
CCOC(=O)N1CCC(Nc2c(N3CCN(c4cccc(C(F)(F)F)c4)CC3)c(=O)c2=O)CC1,inactive,–
Cc1[nH]ccc2c1[nH]c1cc(=O)ccc12,inactive,–
COc1ccc(NC(=S)N(CCN2CCCCC2)Cc2ccco2)cc1,inactive,–
Oc1[nH]c2ccc(Br)cc2c1N=NC(=S)Nc1ccc(F)cc1,"inconclusive: 29.1 µM [activator, single point]",–
C/C(N)=C(/C#N)C(=O)COC(=O)CCSc1ccccc1Cl,inactive,–
CCOC(=O)NC1(NC(C)C)Oc2ccccc2O1,"inconclusive: 0.731 µM [activator, full curve, poor fit]",–
CS(=O)(=O)N(Cc1ccccc1)c1ccc(C(=O)NCCSc2ccccn2)cc1,"inconclusive: 23.1 µM [activator, single point]",–
Cc1ccc(-n2c(C)cc(/C=C3/SC(=O)N(CC(=O)N4CCOCC4)C3=O)c2C)nc1,active: 18.4 µM,–
COc1ccc(OC)c(-c2oc3ccccc3c(=O)c2O)c1,"inconclusive: 23.1 µM [activator, partial curve, poor fit]",–
CN(C)c1ccc(/C=N\Nc2ccccn2)cc1,inactive,–
O=C(Cc1cccc(C(F)(F)F)c1)NCc1cccc(Cl)c1,"inconclusive: 2.91 µM [activator, partial curve, poor fit]",–
C[C@H](CO)N1C[C@H](C)[C@@H](CN(C)S(C)(=O)=O)Oc2ccc(NC(=O)Nc3ccc4c(c3)OCO4)cc2C1=O,"inconclusive: 6.51 µM [activator, single point]",–
COc1ccc(Cc2nnc(NC(=O)Nc3ccc(F)cc3)s2)cc1OC,"inconclusive: 2.06 µM [activator, partial curve, poor fit]",–
Cn1c2ccccc2c2cc(C(=O)NNS(=O)(=O)c3ccc(F)cc3)sc21,"inconclusive: 18.4 µM [activator, partial curve, poor fit]",–
N#CC1=C(N)Oc2cc(N)ccc2C1c1ccc(Cl)cc1 (stereo not drawn),"inconclusive: 3.26 µM [activator, single point]",–
Cc1csc2cc(-c3cccc([N+](=O)[O-])c3)c(-c3cccc([N+](=O)[O-])c3)c[n+]12,inactive,–
O=C(N[C@@H](Cc1ccccc1)C(=O)OCc1ccccc1)c1nc[nH]c1C(=O)N1CCN(c2ccccc2)CC1,inactive,–
CCOc1ccccc1NC(=O)CN(c1ccc(C)cc1)S(=O)(=O)c1c(C)n[nH]c1C,"inconclusive: 25.9 µM [activator, partial curve, poor fit]",–

# At a glance, part of the list above:
SMILES,Potency,re-replication activation
C/C(N)=C(/C#N)C(=O)COC(=O)CCSc1ccccc1Cl,inactive,–
CCOC(=O)NC1(NC(C)C)Oc2ccccc2O1,"inconclusive: 0.731 µM [activator, full curve, poor fit]",–

# (next part)

SMILES,Potency,re-replication activation
COc1ccc(-c2csc(NC(=O)CCS(=O)(=O)c3ccccc3)n2)c(OC)c1,"inconclusive: 18.4 µM [activator, partial curve, poor fit]",–
O=C(CN1CCCCCC1)Nc1ccc(Oc2ccccc2)cc1,"inconclusive: 20.6 µM [activator, partial curve, poor fit]",–
CCOC(=O)c1c(NC(=O)COC(=O)C2CCC2)sc(C(=O)N(C)C)c1C,inactive,–
O=C(CSc1ccccn1)Nc1ccc2c(c1)OCO2,"inconclusive: 29.1 µM [activator, single point]",–
COc1cc(C2CC(=O)Oc3cc(C)c(Br)c(C)c32)cc(OC)c1OC (stereo not drawn),inactive,–
COc1ccc(C(O)(CC(C)C)C(CN2CCOCC2)c2ccccc2)cc1 (stereo not drawn),"inconclusive: 29.1 µM [activator, single point]",–
Cc1ccc(NC(=O)c2noc(C(C)C)c2[N+](=O)[O-])cc1,"inconclusive: 25.9 µM [activator, single point]",–
O=[N+]([O-])c1ccc(Sc2ncc3ccccn23)nc1,inactive,–
Cc1cc(C)c(C)c(OCCN2CCOCC2)c1,"inconclusive: 29.1 µM [activator, single point]",–
COc1ccc(-c2sc3cc4c(cc3c2C#CCO)OCO4)cc1,"inconclusive: 18.4 µM [activator, partial curve, poor fit]",–
CC(=O)N(CCc1cccc(C)c1)Cc1cc2ccc(C)cc2[nH]c1=O,–,inconclusive: 128% [activator]
O=C(CN1CCCc2ccccc21)N/N=C/c1ccc(O)cc1O,"inconclusive: 13 µM [activator, partial curve]",–
O=C(Nc1c(C(=O)c2ccccc2)oc2ccccc12)c1cc(-c2ccccc2O)n[nH]1,"inconclusive: 20.6 µM [activator, single point]",–
O=C(NNC1=C(C(=O)C(F)(F)F)CCC1)c1ccc(Br)cc1,active: 9.2 µM,–
O=C(CCc1ccccc1)N=C1SC2CS(=O)(=O)CC2N1Cc1ccccc1 (stereo not drawn),"inconclusive: 1.64 µM [activator, single point]",–
CCn1c(SCC(=O)N/N=C(\C)c2ccncc2)nnc1-c1ccccc1,"inconclusive: 0.0058 µM [activator, full curve, poor fit]",–
Cc1ccc2c(c1)c1c3n2CCN(CC(N)=O)C3CCC1 (stereo not drawn),"inconclusive: 23.1 µM [activator, single point]",–
COc1ccc(C)cc1NC(=O)CSc1nc2scc(C)c2c(=O)[nH]1,"inconclusive: 14.6 µM [activator, single point]",–
COc1cccc(/C=C/C(=O)c2ccc(NS(=O)(=O)c3ccc(C)cc3)cc2)c1,"inconclusive: 23.1 µM [activator, single point]",–
Oc1ccc(Br)cc1-c1ccnn1-c1ccccc1,"inconclusive: 18.4 µM [activator, single point]",–
COc1ccc([N+](=O)[O-])cc1NC(=O)C(C)c1ccccc1 (stereo not drawn),inactive,–
Cc1cc2oc3cc(NCCC4CCCN4C)ccc3c(=O)c2cc1C (stereo not drawn),"inconclusive: 6.51 µM [activator, single point]",–
